This note sets out measurements from patent publication US20160168253A1.

By UniProt entry, the sequences of proteins in these tests, tags left out. Residues count along the entry.
UniProt P05067, residues 672-713: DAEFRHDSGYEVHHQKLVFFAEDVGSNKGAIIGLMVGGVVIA

No constants are given. Whether binding was seen depends on the method and setting. Some results given as binding are weak or reduced against the parent protein; the word gives no strength.

The target of the assay is native human β-amyloid plaques from brain sections of an Alzheimer's Disease patient (human) (UniProt P05067). In words: indirect immunofluorescence on Alzheimer's disease brain sections.

B1: Mab 31 = Gantenerumab (INN) (antibody, human IgG1, V domains shown)
VH: QVELVESGGGLVQPGGSLRLSCAASGFTFSSYAMSWVRQAPGKGLEWVSAINASGTRTYYADSVKGRFTISRDNSKNTLYLQMNSLRAEDTAVYYCARGKGNTHKPYGYVRYFDVWGQGTLVTVSS
VL: DIVLTQSPATLSLSPGERATLSCRASQSVSSSYLAWYQQKPGQAPRLLIYGASSRATGVPARFSGSGSGTDFTLTISSLEPEDFATYYCLQIYNMPITFGQGTKVEIKR
Take B1: the binding result is recorded as “binds”.
